These are yes or no findings as the source states them, for the method shown. In cells and extracts the contact can be indirect. Binding can be weak; no strength is given. Sequences can lack the tags named with a protein.
Target: HA-HUNK (Hormonally Upregulated Neu-associated Kinase), wildtype
Assay: co-IP; 293T cells co-transfected with HA-HUNK and one Beclin-1 complex member each; HUNK immunoprecipitated with anti-HA antibody on resin, lysates rotated overnight at 4 °C, beads washed 3-4 times in lysis buffer (50 mM Tris-HCl pH 7.5, 150 mM NaCl, 1 mM EDTA, 1% Triton X-100); partners detected by anti-Flag or anti-GFP immunoblot and by antibodies to each member

B1: Flag-Rubicon, wildtype (protein, UniProt Q92622 1-972)
chain: MRPEGAGMELGGGEERLPEESRREHWQLLGNLKTTVEGLVSTNSPNVWSKYGGLERLCRDMQSILYHGLIRDQACRRQTDYWQFVKDIRWLSPHSALHVEKFISVHENDQSSADGASERAVAELWLQHSLQYHCLSAQLRPLLGDRQYIRKFYTDAAFLLSDAHVTAMLQCLEAVEQNNPRLLAQIDASMFARKHESPLLVTKSQSLTALPSSTYTPPNSYAQHSYFGSFSSLHQSVPNNGSERRSTSFPLSGPPRKPQESRGHVSPAEDQTIQAPPVSVSALARDSPLTPNEMSSSTLTSPIEASWVSSQNDSPGDASEGPEYLAIGNLDPRGRTASCQSHSSNAESSSSNLFSSSSSQKPDSAASSLGDQEGGGESQLSSVLRRSSFSEGQTLTVTSGAKKSHIRSHSDTSIASRGAPESCNDKAKLRGPLPYSGQSSEVSTPSSLYMEYEGGRYLCSGEGMFRRPSEGQSLISYLSEQDFGSCADLEKENAHFSISESLIAAIELMKCNMMSQCLEEEEVEEEDSDREIQELKQKIRLRRQQIRTKNLLPMYQEAEHGSFRVTSSSSQFSSRDSAQLSDSGSADEVDEFEIQDADIRRNTASSSKSFVSSQSFSHCFLHSTSAEAVAMGLLKQFEGMQLPAASELEWLVPEHDAPQKLLPIPDSLPISPDDGQHADIYKLRIRVRGNLEWAPPRPQIIFNVHPAPTRKIAVAKQNYRCAGCGIRTDPDYIKRLRYCEYLGKYFCQCCHENAQMAIPSRVLRKWDFSKYYVSNFSKDLLIKIWNDPLFNVQDINSALYRKVKLLNQVRLLRVQLCHMKNMFKTCRLAKELLDSFDTVPGHLTEDLHLYSLNDLTATRKGELGPRLAELTRAGATHVERCMLCQAKGFICEFCQNEDDIIFPFELHKCRTCEECKACYHKACFKSGSCPRCERLQARREALARQSLESYLSDYEEEPAEALALEAAVLEAT
B1 was tested, and the binding was “binds”.

Reference: PMC6888122
